This assay addresses T1, GFP-WT-PARP-7 (UniProt Q7Z3E1).
T1 sequence: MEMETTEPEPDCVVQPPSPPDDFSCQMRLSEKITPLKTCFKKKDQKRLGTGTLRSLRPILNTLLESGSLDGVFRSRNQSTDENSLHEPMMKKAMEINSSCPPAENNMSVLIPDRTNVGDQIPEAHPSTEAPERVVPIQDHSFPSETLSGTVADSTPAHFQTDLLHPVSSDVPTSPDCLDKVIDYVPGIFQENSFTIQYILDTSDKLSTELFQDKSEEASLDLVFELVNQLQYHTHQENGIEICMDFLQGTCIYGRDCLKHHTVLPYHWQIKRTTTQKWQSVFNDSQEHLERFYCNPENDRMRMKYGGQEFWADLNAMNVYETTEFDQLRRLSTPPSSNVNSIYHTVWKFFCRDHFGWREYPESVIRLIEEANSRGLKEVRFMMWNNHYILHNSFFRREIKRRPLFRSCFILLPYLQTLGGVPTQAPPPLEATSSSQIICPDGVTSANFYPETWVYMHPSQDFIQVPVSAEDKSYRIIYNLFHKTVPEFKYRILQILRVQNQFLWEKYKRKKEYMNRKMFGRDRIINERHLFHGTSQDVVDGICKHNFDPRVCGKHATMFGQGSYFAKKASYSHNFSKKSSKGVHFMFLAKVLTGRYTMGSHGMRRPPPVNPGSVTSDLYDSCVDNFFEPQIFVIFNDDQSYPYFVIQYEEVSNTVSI
Briefly: co-IP; MycX2-PARP-13.2 WT or ZnF domain mutants co-expressed with GFP-PARP-7 or GFP empty vector in HEK 293T cells; GFP-PARP-7 immunoprecipitated with GFP-nanobody magnetic beads (Chromotek); Western blot for ADPr, GFP, Myc, actin. In general terms: In western blotting, separated proteins are transferred to a membrane and probed.

These are yes or no findings as the source states them, for the method shown. Binding seen in cells or lysates may run through a third protein. Binding can be weak; no strength is given. Sequences can lack the tags named with a protein.

With “MycX2-PARP-13.2 CtoA ZnF 1–2 mutant (from UniProt Q7Z2W4-2)”, the binding entry is “binds”.

As for “MycX2-PARP-13.2 CtoA ZnF 3–4 mutant (from UniProt Q7Z2W4-2)”, the binding entry is given as “binds”.

Values taken from publication PMC7880690, “Chemical genetics and proteome-wide site mapping reveal cysteine MARylation by PARP-7 on immune-relevant protein targets” (eLife, 2021).
